# Assay results published in the supplement of paper PMC10689618.
# Structures can show the parent of a compound that is named as a salt. The list shows a part of the results. Repeats are few or missing, and single values can be far off.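 Primary human fetal astrocytes engulfed labelled rat cortical synaptosomes, measured as a red/green ratio corrected for calcein live-cell signal and scaled to the plate median. Toxicity meant calcein falling over 30%; decreased phagocytosis meant below 70% of median above 5 µM.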
# How the values were obtained:
# [1] = system: Human fetal astrocytes; test: loss of total cells relative to no-compound high-control median (toxicity); higher = more toxic (fewer cells); conditions: 24 h
# [2] = system: Human fetal astrocytes; test: synaptosome phagocytosis (pHrodo/calcein intensity ratio) relative to plate median of data wells; higher = more phagocytosis; conditions: 24 h
Structure (SMILES),loss of total cells ([1]; 1.39 µM),loss of total cells ([1]; 2.78 µM),loss of total cells ([1]; 5.56 µM),loss of total cells ([1]; 11.11 µM),loss of total cells ([1]; 22.22 µM),synaptosome phagocytosis ([2]; 1.39 µM),synaptosome phagocytosis ([2]; 2.78 µM),synaptosome phagocytosis ([2]; 5.56 µM),synaptosome phagocytosis ([2]; 11.11 µM),synaptosome phagocytosis ([2]; 22.22 µM)
CN(C)CCC=C1c2ccccc2COc2ccccc21 [Doxepin hydrochloride],-5.4%,-21.4%,-6.6%,-2.2%,-1.6%,128%,103%,104%,131%,86.1%
Nc1nc2ccc(OC(F)(F)F)cc2s1 [Riluzole],-9.6%,-11.7%,-5.6%,-9.6%,-14%,111%,94.7%,118%,129%,83.5%
O=C(O)/C=C/C(O)c1ccc(Cl)cc1 (stereo not given),-11.8%,-15.8%,-4.2%,-20%,-3.7%,96.7%,96.8%,110%,90.5%,128%
CC(C)(C)c1cc(/C=C(\C#N)C(N)=S)cc(C(C)(C)C)c1O [Tyrphostin AG 879],-17.7%,-30.8%,-3.9%,-1.1%,24.7%,114%,115%,112%,93.8%,64%
C[C@]12C[C@H](O)[C@H]3[C@@H](CCC4=CC(=O)CC[C@@]43C)[C@@H]1CC[C@@H]2C(=O)CO [Corticosterone],-22%,-22%,-25.3%,1.3%,5.6%,63.9%,84.5%,80.6%,87.7%,72%
C[C@H]1C[C@H]2[C@@H]3CCC4=CC(=O)C=C[C@]4(C)[C@@]3(Cl)[C@@H](O)C[C@]2(C)[C@@]1(O)C(=O)CO [Beclomethasone],-14.3%,-12.9%,-5.1%,-4%,10.2%,103%,76.3%,76.2%,113%,77.8%
Nc1ncnc2c1ncn2C1CCCC1 [9-cyclopentyladenine],-8.8%,-10.8%,-15.2%,-11.2%,8.6%,128%,100%,112%,128%,117%
Nc1ccc(N2C(=O)c3ccccc3C2=O)c(Cl)c1 [N-(4-Amino-2-chlorophenyl)phthalimide],-4%,-5.4%,-11.5%,6.7%,-4.9%,101%,99.4%,120%,122%,76.2%
N[C@@H](Cc1c[nH]c2ccc(O)cc12)C(=O)O [5-Hydroxy-L-tryptophan],-19.7%,-12.8%,3.3%,-13.9%,-9.6%,108%,101%,103%,98.2%,168%
CCCOC(=O)c1c(-c2ccccc2)nc(CC)c(C(=O)SCC)c1CCC,-14.7%,5.9%,8%,36.2%,43%,99.7%,51.6%,126%,63.7%,54.5%
O=Nc1c(-c2c(O)[nH]c3ccccc23)[nH]c2ccccc12 [Indirubin-3'-oxime],7.9%,0%,17.3%,7.6%,13.6%,103%,83.1%,77.8%,63.2%,38%
N=C1Sc2ccccc2C2=NCCCN12,-0.5%,6.8%,8%,19%,13.1%,104%,102%,69.2%,87.6%,61.8%
Cn1cc(C(=O)OCC2CCN(CCNS(C)(=O)=O)CC2)c2ccccc21,-8.1%,-22.3%,-6.9%,-16.6%,9.4%,117%,124%,90%,90.9%,112%
C[C@]12C=CC(=O)C=C1CC[C@H]1[C@@H]3C[C@@H](O)[C@](O)(C(=O)CO)[C@@]3(C)C[C@H](O)[C@@]12F [Triamcinolone],-39.4%,-36.2%,-27.5%,-38.7%,-61.7%,77.2%,93%,98%,112%,128%
COc1cc([C@@H]2c3cc4c(cc3[C@@H](O[C@@H]3O[C@@H]5CO[C@@H](C)O[C@H]5[C@H](O)[C@H]3O)[C@H]3COC(=O)[C@H]23)OCO4)cc(OC)c1O [Etoposide],3.8%,-17.9%,-5.8%,-14.8%,6.4%,107%,101%,104%,121%,99.9%
CNCCNS(=O)(=O)c1cccc2cnccc12 [H-8 dihydrochloride],-2.4%,13.1%,6.1%,14.3%,25.2%,129%,147%,114%,115%,118%
O=c1[nH]c2cc(C(F)(F)F)ccc2n1-c1cc(C(F)(F)F)ccc1O,-10%,4.1%,14.6%,22.9%,13.1%,96%,104%,100%,80.6%,117%
C[N+](C)(C)CCCCCNCC12CC3CC(CC(C3)C1)C2,-0.4%,-12.8%,-15.6%,-13.9%,-1.6%,121%,114%,102%,90.4%,136%
O=C(O)c1cc(=O)c2ccccc2[nH]1 [Kynurenic acid],0.5%,-11.3%,8.9%,4.8%,8.4%,107%,90.3%,67.5%,76%,54.6%

# Part of the list above, as tab-separated lines:
Structure (SMILES)	loss of total cells ([1]; 1.39 µM)	loss of total cells ([1]; 2.78 µM)	loss of total cells ([1]; 5.56 µM)	loss of total cells ([1]; 11.11 µM)	loss of total cells ([1]; 22.22 µM)	synaptosome phagocytosis ([2]; 1.39 µM)	synaptosome phagocytosis ([2]; 2.78 µM)	synaptosome phagocytosis ([2]; 5.56 µM)	synaptosome phagocytosis ([2]; 11.11 µM)	synaptosome phagocytosis ([2]; 22.22 µM)
O=C(O)/C=C/C(O)c1ccc(Cl)cc1 (stereo not given)	-11.8%	-15.8%	-4.2%	-20%	-3.7%	96.7%	96.8%	110%	90.5%	128%
CC(C)(C)c1cc(/C=C(\C#N)C(N)=S)cc(C(C)(C)C)c1O [Tyrphostin AG 879]	-17.7%	-30.8%	-3.9%	-1.1%	24.7%	114%	115%	112%	93.8%	64%
C[C@H]1C[C@H]2[C@@H]3CCC4=CC(=O)C=C[C@]4(C)[C@@]3(Cl)[C@@H](O)C[C@]2(C)[C@@]1(O)C(=O)CO [Beclomethasone]	-14.3%	-12.9%	-5.1%	-4%	10.2%	103%	76.3%	76.2%	113%	77.8%
N[C@@H](Cc1c[nH]c2ccc(O)cc12)C(=O)O [5-Hydroxy-L-tryptophan]	-19.7%	-12.8%	3.3%	-13.9%	-9.6%	108%	101%	103%	98.2%	168%
O=Nc1c(-c2c(O)[nH]c3ccccc23)[nH]c2ccccc12 [Indirubin-3'-oxime]	7.9%	0%	17.3%	7.6%	13.6%	103%	83.1%	77.8%	63.2%	38%
N=C1Sc2ccccc2C2=NCCCN12	-0.5%	6.8%	8%	19%	13.1%	104%	102%	69.2%	87.6%	61.8%
COc1cc([C@@H]2c3cc4c(cc3[C@@H](O[C@@H]3O[C@@H]5CO[C@@H](C)O[C@H]5[C@H](O)[C@H]3O)[C@H]3COC(=O)[C@H]23)OCO4)cc(OC)c1O [Etoposide]	3.8%	-17.9%	-5.8%	-14.8%	6.4%	107%	101%	104%	121%	99.9%
O=C(O)c1cc(=O)c2ccccc2[nH]1 [Kynurenic acid]	0.5%	-11.3%	8.9%	4.8%	8.4%	107%	90.3%	67.5%	76%	54.6%

# (listing goes on)

Structure (SMILES),loss of total cells ([1]; 1.39 µM),loss of total cells ([1]; 2.78 µM),loss of total cells ([1]; 5.56 µM),loss of total cells ([1]; 11.11 µM),loss of total cells ([1]; 22.22 µM),synaptosome phagocytosis ([2]; 1.39 µM),synaptosome phagocytosis ([2]; 2.78 µM),synaptosome phagocytosis ([2]; 5.56 µM),synaptosome phagocytosis ([2]; 11.11 µM),synaptosome phagocytosis ([2]; 22.22 µM)
COc1ccc(C(=O)NCc2cccnc2)cc1C(=O)NCc1cccnc1 [Picotamide],-20.8%,-10.5%,-4.5%,-2.7%,-4.1%,98.2%,128%,120%,106%,108%
CC(C)NC[C@H](O)COc1ccc(CC(N)=O)cc1 [S(-)-Atenolol],-7.7%,-6.6%,-22.6%,-7.6%,4.9%,101%,115%,88%,104%,71.1%
CC#CCOC(=O)c1c(C)nc2sc3c(c2c1N)CCC(O)C3 (stereo not given),-11.5%,-9.3%,-34.8%,-2.7%,-32.1%,77.7%,85.8%,76%,90.8%,113%
Cc1ccccc1N1C(=O)c2cc(S(N)(=O)=O)c(Cl)cc2NC1C (stereo not given) [Metolazone],-4.3%,4.1%,16.4%,19%,13.1%,120%,90.3%,126%,134%,114%
CCN1CCc2nc(N)oc2CC1 [B-HT 933 dihydrochloride],-12.8%,-8.1%,-23.5%,-20.2%,9.4%,105%,77.3%,107%,89.1%,97.1%
CCCOc1ccccc1-c1nc2[nH]nnc2c(=O)[nH]1 [Zaprinast],-5.9%,-3.9%,11.8%,-4.2%,-14%,118%,94.6%,120%,119%,117%
S=C(S)N1CCCC1 [Ammonium pyrrolidinedithiocarbamate],-7.1%,15.3%,28.7%,59.4%,55.1%,98.2%,73.9%,36.5%,33.6%,34.8%
"N[C@@H](Cc1ccc(O)c(O)c1)C(=O)O [L-3,4-Dihydroxyphenylalanine]",3.8%,-7.7%,10.7%,18.4%,6.4%,87.7%,112%,125%,92.1%,100%
Cc1nc2c(OCc3ccccc3)cccn2c1CC#N,-16.3%,-1.7%,-4.1%,-16.6%,5.6%,87.6%,108%,108%,75%,80.3%
CC(=N)NCc1cccc(CN)c1 [1400W dihydrochloride],-31.4%,-14.7%,-6.2%,-21.8%,-42%,110%,114%,105%,102%,132%
C[C@H](CCC(=O)NCCS(=O)(=O)O)[C@H]1CC[C@H]2[C@@H]3[C@H](O)C[C@@H]4C[C@H](O)CC[C@]4(C)[C@H]3C[C@H](O)[C@]12C [Sodium Taurocholate],-22%,-3%,-19.8%,-5.8%,-7.1%,85.5%,92.9%,97.6%,96.2%,94%
OCCN1CCN(CC/C=C2/c3ccccc3Sc3ccc(C(F)(F)F)cc32)CC1 [cis-(Z)-Flupenthixol dihydrochloride],2.1%,-19.7%,-2.5%,0.4%,20.8%,83.4%,104%,119%,80.2%,88.4%
CC(C)Cc1ccc([C@H](C)C(=O)O)cc1 [S(+)-Ibuprofen],10%,14%,31.5%,4.8%,20.6%,118%,75.9%,82.5%,96.7%,120%
Cc1nc2c([nH]1)c(=O)n(C)c(=O)n2Cc1ccco1 [Furafylline],3.8%,-10.3%,-2.5%,-20.2%,13.6%,118%,119%,89.3%,120%,105%
CCCCOC(=O)NS(=O)(=O)c1sc(CC(C)C)cc1-c1ccc(Cn2c(CC)nc3c(C)cc(C)nc32)cc1,-1.4%,0.5%,1.4%,-4.8%,21.5%,82.2%,103%,94%,86.7%,70.6%
CC(C(O)c1ccc(O)cc1)N1CCC(Cc2ccccc2)CC1 (stereo not given) [Ifenprodil tartrate],-14.7%,13.1%,26.8%,17.1%,15.9%,87.7%,137%,95.8%,104%,121%
C=C/C(C)=C/[C@@]1(C)SC(=O)C(C)=C1O [Thiolactomycin],-10.9%,12.2%,1.4%,-1%,15%,84%,101%,129%,106%,104%
COC(=O)c1c(-c2cc(OC)c(OC)c(OC)c2)c2ccnc(OCc3ncccn3)c2c(=O)n1Cc1ccnc(C)c1,-28.3%,-16.5%,2.2%,18.8%,-1.6%,112%,130%,116%,128%,93.9%
